Results from publication PMC6519732 (Journal of medicinal chemistry, 2019).

Experiments:
Test in all cases: cells
[1] = tested on: HUH7 cells; settings: Homo sapiens, Huh-7, 72 h, read-out: antiproliferative IC50
[2] = tested on: MDA-MB-231 cells; settings: Homo sapiens, MDA-MB-231, 72 h, read-out: antiproliferative IC50
[3] = tested on: T24 cells; settings: Homo sapiens, T-24, 72 h, read-out: antiproliferative IC50

**Q.** How did the IC50 [1] turn out when `O=C(CCCCCCC(=O)Nc1ccccc1)NO` [SAHA, suberoylanilide hydroxamic acid] was run?
**A.** 1200 nM

**Q.** And the IC50 [2]?
**A.** 2800 nM

**Q.** And the IC50 [3]?
**A.** 2400 nM
